# In PubChem BioAssay AID2685 (National Center for Advancing Translational Sciences (NCATS), 2010):
# Among all 320,000 compounds or so, about 2,100 (0.66%) were called active. The shares of active, inactive and inconclusive entries below differ from those in the screen. Calls follow the shape of the dose curve; as a rule, active = well fitted inhibition curve with a large enough effect in the signal ratio, with a control signal flat (not every such curve was filed as active); inconclusive = small, poorly fitted or top-dose-only effect, or effect the other way, or a change in a side signal; inactive = flat fitted curve, though single readings scatter; the % refers to the signal ratio. Potencies of inconclusive entries are doubtful fits and often do not repeat.
# Experiment: qHTS Assay for Lipid Storage Modulators in Drosophila S3 Cells
# Settings: BODIPY lipid droplet fluorescence, 18-24 h, cells fed with added oleic acid; lipid storage change, negative = inhibition: at 46.1 µM (top of the series) unless noted
# In short: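 Drosophila S3 cells loaded with oleic acid (400 uM, as added) and compounds at several concentrations; lipid droplets imaged by 488-nm laser-scanning cytometry, 500–530 nm intensity and object ratio to cell channel. Percent activity normalized to 20 uM Triacsin C.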
# % is scaled to controls: 0 for no effect and ±100 for the full control effect; potency is read from the fitted curve at half-maximal effect.
SMILES,Potency,"lipid storage change, negative = inhibition",outcome
CN(C)c1ccc(N/C=C/C(=O)C(F)(F)F)cc1,"inconclusive: 0.82 µM [falling, full curve]",–,–
Cc1ccc(S(=O)(=O)N2CCCCC2)cc1NC(=O)Cc1c[nH]c2ccccc12,–,inconclusive: -0.794%,–
COc1cccc(CN2CC(C(=O)N(C)CCCC3CCCC3)CCC2=O)c1 (stereo not drawn),–,inconclusive: -51.8%,–
Cn1c(=O)c2[nH]cnc2n(-c2ccccc2)c1=O,–,inconclusive: -2.14%,–
C=CCn1c(SCC(=O)Nc2ccc(F)cc2F)nnc1-c1cnccn1,–,inconclusive: -8.22%,–
COCCCNS(=O)(=O)c1ccc2c3c(cccc13)C(=O)S2,–,inconclusive: -10.6%,–
CCCCc1c(O)nc(SCC(=O)NCC2CCCO2)[nH]c1=O (stereo not drawn),–,inconclusive: -2.45%,–
Cc1cc(OCc2nn[nH]n2)c2c(C)c(CC(=O)O)c(=O)oc2c1,–,inconclusive: 12.7% [at 9.22 µM],–
CCCCOC(=O)c1ccc(NC(=O)CN2C(=O)NC3(CCCCCC3)C2=O)cc1,"inconclusive: 29.1 µM [falling, single point]",–,–
CC(C)(C)Cc1nnc(NS(=O)(=O)Cc2ccccc2)s1,–,inconclusive: -16.6%,–
CN(C)C1=NCCN1CCCC1CCCCC1,"inconclusive: 29.1 µM [activator, single point]",–,–
NS(=O)(=O)c1ccc(CNC(=O)/C=C/c2ccco2)cc1,"inconclusive: 1.03 µM [falling, full curve]",–,–
COCCn1c(C)cc(C(=O)CSc2nc3ccccc3c(=O)n2C(C)COC)c1C (stereo not drawn),–,inconclusive: 6.26%,–
C=CCc1cccc(CNc2ccc(Br)cc2)c1O,"inconclusive: 29.1 µM [falling, single point]",–,–
CN(Cc1ccccc1F)C(=O)CN1CCN(S(=O)(=O)c2ccc3c(c2)OCCCO3)CC1,"inconclusive: 14.6 µM [falling, single point]",–,–
Cc1ccc(NC(=O)CN(C)S(=O)(=O)c2cccs2)c(Br)c1,–,inconclusive: 105%,–
COc1cc(C(=O)NC(C)CCn2cccn2)ccc1OC1CCN(C(C)=O)CC1 (stereo not drawn),–,inconclusive: -9.23%,–
Fc1ccccc1-c1nnc2ccc3ccccc3n12,"inconclusive: 2.59 µM [falling, partial curve]",–,–
CC(=O)c1cccc(Nc2nc(-c3cccnc3)cs2)c1,–,inconclusive: -71%,–
COc1cccc(NC(=S)N/N=C2\CC3CCC2(C)C3(C)C)c1 (stereo not drawn),–,inconclusive: -82.2%,–
CCc1ccc(C2CC(c3ccccc3)n3ncnc3N2)cc1 (stereo not drawn),"inconclusive: 2.06 µM [activator, partial curve, poor fit]",–,–
O=C(CCNC(=O)Cn1cnc2ccccc2c1=O)NCC1COc2ccccc2O1 (stereo not drawn),"inconclusive: 23.1 µM [falling, single point]",–,–
O=C(c1ccc(N2CCC3(CC2)OCCO3)c([N+](=O)[O-])c1)N1CCOCC1,–,inconclusive: 9.81%,–
COc1ccc(S(=O)(=O)Cc2ccc(C(=O)NC3CCCCCC3)o2)cc1,–,inconclusive: 55.5%,–
O=C(Nn1c(SCc2cccc([N+](=O)[O-])c2)nc2ccccc2c1=O)c1ccccc1,–,inconclusive: 26.6%,–
CCc1ccc(N2CC(C(=O)Nc3ccc(S(=O)(=O)N4CCCCC4)cc3)CC2=O)cc1 (stereo not drawn),"inconclusive: 2.91 µM [falling, single point]",–,–

SMILES,Potency,"lipid storage change, negative = inhibition",outcome
CCOC(=O)c1c(NC(=O)CN2CCN(C(=O)C3CCCO3)CC2)sc(C)c1C (stereo not drawn),–,inconclusive: -53.4%,–
CCOc1ccc(C(=O)NC(=S)N2CCN(c3ccc(C(F)(F)F)cc3[N+](=O)[O-])CC2)cc1,–,inconclusive: 3.24%,–
Cc1c(Cl)cccc1NC(=O)CN1CCC(NC(=O)C2CCCCC2)CC1,–,inconclusive: -23.7%,–
CCOC(=O)Cn1c(=O)c2c(nc3n2CCN3c2ccc(C)cc2)n(C)c1=O,"inconclusive: 8.2 µM [activator, partial curve]",–,–
COc1ccc(N2CCN(C(=S)Nc3cc(C)cc(C)c3)CC2)cc1,"inconclusive: 25.9 µM [activator, single point]",–,–
CC(C)c1ccc(NC(=O)C2CCCCC2C(=O)O)cc1 (stereo not drawn),–,inconclusive: 17.9%,–
O=C1CC(C(=O)N2CCc3ccccc32)CN1c1cccc(C(F)(F)F)c1 (stereo not drawn),–,inconclusive: 65%,–
CC(C)c1ccc(/C=C2\SC(=S)N(CCC(=O)NCCCn3ccnc3)C2=O)cc1,"inconclusive: 29.1 µM [falling, single point]",–,–
Cc1ccc(S(=O)(=O)N[C@H](C(=O)N2CCC(C(=O)N[C@H](C(=O)O)c3ccccc3)CC2)C(C)C)cc1,–,inconclusive: 24.5%,–
Cc1cccc(NC(=O)c2ccc3c(c2)C(=O)N(Cc2cccnc2)C3=O)c1C,"inconclusive: 14.6 µM [falling, single point]",–,–
CC(=O)Nc1ccc(NC(=O)C(C)Sc2n[nH]c(-c3cccs3)n2)cc1 (stereo not drawn),"inconclusive: 32.6 µM [activator, single point]",–,–
CC(CCc1ccccc1)NCC#N (stereo not drawn),–,inconclusive: -46.3%,–
O=C(c1cccc(S(=O)(=O)Nc2ccccc2Cl)c1)N1CCN(C(=O)c2ccco2)CC1,–,inconclusive: 9.03%,–
CC(=O)c1ccc(NC(=O)C2(c3ccccc3)CCOCC2)cc1,–,inconclusive: -46%,–
O=c1c2c3nc4ccccc4nc3n(-c3ccc4c(c3)OCCO4)c2ncn1C1CCCC1,–,inconclusive: 121%,–
COc1ccc(C(=O)NNC(=O)CSc2nnc(-c3cccnc3)n2C)cc1,–,inconclusive: 4.73%,–
COc1ccc(N2C(=O)C3CCCN3C2=O)cc1 (stereo not drawn),active: 18.4 µM,–,–
O=C(C(Cc1ccccc1)n1cccc1)N1CCN(c2cccc(Cl)c2)CC1 (stereo not drawn),–,inconclusive: 9.86%,–
O=C(c1ccc(S(=O)(=O)N2CCCC2)cc1)N(c1ccc(F)cc1)C1C=CS(=O)(=O)C1 (stereo not drawn),–,inconclusive: -30%,–
Cc1csc(NC(=O)CSc2nc3sc(C)c(C)c3c(=O)[nH]2)n1,–,inconclusive: 9.97%,–
O=C(CSc1ccc2nnc(-c3cccnc3)n2n1)Nc1ccc(F)cc1,"inconclusive: 29.1 µM [falling, partial curve, poor fit]",–,–
C=CCN1C(=O)C2(OCCCO2)c2cc(Cl)ccc21,active: 4.11 µM,–,–
Cc1cccc(C(=O)OCC(=O)N2CCCCCC2)c1,–,inconclusive: 53.8%,–
O=C(COc1ccc(Cl)cc1)NCCNC(=O)c1cnccn1,"inconclusive: 29.1 µM [falling, single point]",–,–
O=C(Nc1ccc2c(c1)OCCO2)NC12CC3CC(CC(C3)C1)C2,–,inconclusive: 9.48%,–
CCN(CC)Cc1cc(NC2=NS(=O)(=O)c3ccccc32)ccc1OC(=O)c1ccccc1,–,inconclusive: -4.41%,–

# A draw from above in order of molecular weight, rising:
SMILES,Potency,"lipid storage change, negative = inhibition",outcome
O=C(C(Cc1ccccc1)n1cccc1)N1CCN(c2cccc(Cl)c2)CC1 (stereo not drawn),–,inconclusive: 9.86%,–
COc1ccc(C(=O)NNC(=O)CSc2nnc(-c3cccnc3)n2C)cc1,–,inconclusive: 4.73%,–
CCOc1ccc(C(=O)NC(=S)N2CCN(c3ccc(C(F)(F)F)cc3[N+](=O)[O-])CC2)cc1,–,inconclusive: 3.24%,–

# Additional compounds follow:

SMILES,Potency,"lipid storage change, negative = inhibition",outcome
O=C(NCCN1CCOCC1)c1c(O)nc2sccn2c1=O,–,inconclusive,–
Cc1ccc(-n2c(C)cc(-c3csc(N)n3)c2C)cc1,–,inconclusive: -33.5%,–
COCCCNC(=O)CCCC(=O)NCCCOC,–,inconclusive: 19%,–
CC(C)N(C(=O)C1CC(=O)OC12CCCCC2)C(C)C (stereo not drawn),–,inconclusive: -45.6%,–
CCC1Nc2ncnc(N3CCN(c4ccccc4)CC3)c2N(Cc2ccc(Cl)cc2)C1=O (stereo not drawn),"inconclusive: 29.1 µM [falling, single point]",–,–
COc1cccc(CN(C)C(=O)c2ccc3c(=O)n4c(nc3c2)CCC4)c1,–,inconclusive: 9.56%,–
COc1cc(Cl)nn(-c2ccccc2)c1=O,–,inactive: 6.03%,–
CN(C)CCCNC(=S)N1CCn2c(nc3ccccc32)C1,"inconclusive: 0.103 µM [falling, full curve, poor fit]",–,–
CN(C)S(=O)(=O)c1cccc(NC(=O)COc2nc3ccccc3nc2N2CCOCC2)c1,"inconclusive: 0.517 µM [falling, partial curve, poor fit]",–,–
CCCCC(=O)Nc1ccc(NC(=O)c2cc(OC)c(OC)c(OC)c2)cn1,–,inconclusive: -1.39%,–
O=C(O)c1cccc2sc3cc(Cl)ccc3c(=O)c12,"inconclusive: 0.13 µM [activator, full curve, poor fit]",–,–
Cc1c(Br)c([N+](=O)[O-])nn1CCCC(=O)N1CCN(c2ccccc2)CC1,–,inconclusive: 14%,–
O=C(OCc1nc2scc(-c3ccccc3)c2c(=O)[nH]1)c1cc([N+](=O)[O-])ccc1Cl,–,inconclusive: 24.1%,–
CC1CCCCC1NC(=O)c1ccc(S(=O)(=O)N2CCCC2)cc1 (stereo not drawn),–,–,inactive [at 46.1 µM]
O=C(CSc1nnnn1C1CCCCC1)NCc1ccccc1,–,inconclusive: 10.7%,–
O=C(CSCc1ccc(Br)cc1)NC1CC1,–,inconclusive: -55.9%,–
CN(C(=O)OCc1ccccc1)C(CC(N)=O)C(=O)O (stereo not drawn),–,inconclusive: 50.4%,–
COc1ccc(CCNc2nc(-c3cccnc3)nc3ccccc23)cc1OC,active: 9.2 µM,–,–
COCCCN(C(=S)Nc1cc(Cl)cc(Cl)c1)C(C)c1ccccn1 (stereo not drawn),–,inconclusive: 15.8%,–
CC1=C(C)CC(C(=O)NCc2ccc3c(c2)OCO3)C(C(=O)O)C1 (stereo not drawn),"inconclusive: 29.1 µM [activator, single point]",–,–
COc1ccc(C2=NOC(C(=O)NCCCN3CCOCC3)C2)cc1 (stereo not drawn),–,inconclusive: -62.4%,–
Cc1cc(/C=C2\SC(=Nc3ccc(N4CCOCC4)cc3)N(C)C2=O)c(C)n1-c1cccnc1,–,inconclusive: -18.2%,–
CC1(C)CC(O)C(CCC(O)c2ccccc2)C(C)(C)N1 (stereo not drawn),–,inconclusive: -4.67%,–
COC(=O)c1sccc1NC(=O)c1c(-c2ccccc2)noc1C,–,inconclusive: -12.2%,–
CCOC(OCC)P(=O)(c1ccccc1)c1ccccc1,–,inconclusive: 1.76%,–
CCCCSCCCNC(=O)CS(=O)Cc1nc(-c2cccc(C)c2)oc1C (stereo not drawn),"inconclusive: 13 µM [activator, partial curve]",–,–
